Data: PubChem BioAssay AID504834 (National Center for Advancing Translational Sciences (NCATS), 2011)
In all, about 320,000 compounds went through this assay and about 22,000 (6.9%) were called active. The inconclusive results got no clear call from the source; some entries with a clear call stand among them for comparison. Calls follow the shape of the dose curve; as a rule, active = well fitted inhibition curve with a large enough effect; inconclusive = small, poorly fitted or top-dose-only effect, or another doubt; inactive = no such curve, though single readings can be large or run the other way. Potencies beside an inconclusive call are fits to weak or partial responses and may not hold up.

Experiment: Primary qHTS for delayed death inhibitors of the malarial parasite plastid, 96 hour incubation
Settings: P. falciparum luciferase reporter growth; series mostly up to 28.7 µM; activity change, negative = inhibition: at the top concentration
Outline: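 Parasite growth measured via integrated firefly luciferase reporter in P. falciparum. Infected erythrocytes at 2% hematocrit, 0.05% parasitemia final were treated 96 hours at 37 C under 5% CO2, and luminescence was read.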
% is scaled to controls: 0 for no effect and ±100 for the full control effect; potency is read from the fitted curve at half-maximal effect.

SMILES	Potency	activity change, negative = inhibition
CCOC(=O)N1CCC(N2C(=O)c3ccccc3C2Nc2ccccc2)CC1 (centres undefined)	inconclusive: 11.7 µM [inhibitor, single point]	
Cn1c(SCC(=O)N/N=C/c2cc([N+](=O)[O-])ccc2O)nnc1-c1ccccc1	inconclusive: 14.7 µM [inhibitor, single point]	
Cc1cc2c(c(=O)n1Cc1cccnc1)C(Cc1ccccc1)C(C#N)=C(N)O2 (centres undefined)	inconclusive: 13.1 µM [inhibitor, single point]	
CCOC(=O)c1cnc2c(Cl)cccc2c1NCCN1CCOCC1		inactive: 103%
Cc1ccc(NC(=O)c2cccc(NC(=O)/C=C/c3ccco3)c2)cc1C	inconclusive: 18.5 µM [inhibitor, single point]	
O=S(=O)(c1ccc(Cl)cc1)N1CCN(Cc2cccnc2)CC1	inconclusive: 11.7 µM [inhibitor, single point]	
Cc1ccc(N2C(=O)N(CC(=O)Nc3ccccc3C(F)(F)F)C(=O)C2C)cc1 (centres undefined)		inactive: 27.2%
Cc1ccccc1NCc1ccc([N+](=O)[O-])s1	inconclusive: 18.5 µM [inhibitor, single point]	
Cc1sc2nc(CN3CCCC3)nc(N3CCN(S(=O)(=O)c4cccs4)CC3)c2c1C	inconclusive: 11.7 µM [inhibitor, partial curve, poor fit]	
COc1cc(C(=O)NNC(=S)NCc2ccco2)cc(OC)c1OC		inactive: 92.3% [at 5.75 µM]
CCCc1nn2c(=O)cc(COc3cccc(NC(=O)c4ccco4)c3)nc2s1	inconclusive: 11.7 µM [inhibitor, single point]	
O=C(Nc1ccc(F)cc1)Nc1nnc(Cc2ccccc2)s1	active: 4.65 µM	
O=C(CN(Cc1ccc2c(c1)OCO2)C(=O)CSc1nc2ccccc2o1)NC1CCCCC1	inconclusive: 13.1 µM [inhibitor, single point]	
CSc1ccc(/C=N/NC(=O)c2cccs2)cc1	inconclusive: 16.5 µM [inhibitor, single point]	
O=C(NCc1cccc(F)c1)c1noc2c1CCCC2	inconclusive: 10.4 µM [inhibitor, single point]	
OCC(O)CO		inactive: -8.57%
O=C(CSc1nnc2c3ccccc3c3ccccc3c2n1)Nc1ccccc1	inconclusive: 18.5 µM [inhibitor, single point]	
Oc1csc(Cc2nc(-c3ccc(Br)cc3)cs2)n1		inactive: 4.81%
COc1ccc2c(c1)OC[C@H]1[C@H]2N2C(=O)CN(Cc3ccco3)C(=O)[C@@]2(C)[C@H]1c1ccccc1	active: 9.28 µM	
CC1CCC2(CC1)NC(=O)N(NC(=O)c1cc3ccccc3o1)C2=O (centres undefined)		inactive: -4.56%
CC1Cc2ccccc2N1C(=O)CSc1nnc2c(n1)[nH]c1ccccc12 (centres undefined)	inconclusive: 11.7 µM [inhibitor, single point]	
O=C1c2ccccc2C(=O)N1CCSc1n[nH]c(=S)s1	inconclusive: 11.7 µM [inhibitor, single point]	
Cc1ccc(CN2CCN(/N=C\C(Br)=C\c3ccccc3)CC2)cc1	inconclusive: 1.04 µM [inhibitor, full curve]	

14 of these compounds, set out differently.
SMILES,Potency,"activity change, negative = inhibition"
O=S(=O)(c1ccc(Cl)cc1)N1CCN(Cc2cccnc2)CC1,"inconclusive: 11.7 µM [inhibitor, single point]",
Cc1ccc(N2C(=O)N(CC(=O)Nc3ccccc3C(F)(F)F)C(=O)C2C)cc1 (centres undefined),,inactive: 27.2%
Cc1ccccc1NCc1ccc([N+](=O)[O-])s1,"inconclusive: 18.5 µM [inhibitor, single point]",
Cc1sc2nc(CN3CCCC3)nc(N3CCN(S(=O)(=O)c4cccs4)CC3)c2c1C,"inconclusive: 11.7 µM [inhibitor, partial curve, poor fit]",
COc1cc(C(=O)NNC(=S)NCc2ccco2)cc(OC)c1OC,,inactive: 92.3% [at 5.75 µM]
CCCc1nn2c(=O)cc(COc3cccc(NC(=O)c4ccco4)c3)nc2s1,"inconclusive: 11.7 µM [inhibitor, single point]",
O=C(Nc1ccc(F)cc1)Nc1nnc(Cc2ccccc2)s1,active: 4.65 µM,
O=C(CN(Cc1ccc2c(c1)OCO2)C(=O)CSc1nc2ccccc2o1)NC1CCCCC1,"inconclusive: 13.1 µM [inhibitor, single point]",
CSc1ccc(/C=N/NC(=O)c2cccs2)cc1,"inconclusive: 16.5 µM [inhibitor, single point]",
O=C(NCc1cccc(F)c1)c1noc2c1CCCC2,"inconclusive: 10.4 µM [inhibitor, single point]",
OCC(O)CO,,inactive: -8.57%
O=C(CSc1nnc2c3ccccc3c3ccccc3c2n1)Nc1ccccc1,"inconclusive: 18.5 µM [inhibitor, single point]",
Oc1csc(Cc2nc(-c3ccc(Br)cc3)cs2)n1,,inactive: 4.81%
COc1ccc2c(c1)OC[C@H]1[C@H]2N2C(=O)CN(Cc3ccco3)C(=O)[C@@]2(C)[C@H]1c1ccccc1,active: 9.28 µM,

The list goes on:

SMILES	Potency	activity change, negative = inhibition
CCOc1ccc(C(=O)CN2CCN(S(=O)(=O)c3ccc(F)cc3)CC2)cc1		inactive: -13.8%
COC(=O)C(Cc1cccc(C)n1)(c1ccccc1)c1ccccc1	inconclusive: 4.65 µM [inhibitor, partial curve]	
Cc1ccc(C)c(NC(=O)CN(C)C(=O)c2ccc(-c3cccc(C(F)(F)F)c3)o2)c1	active: 1.31 µM	
CCOC(=O)C1CCCN(c2ncnc3c2cnn3-c2ccc(Cl)cc2)C1 (centres undefined)	inconclusive: 0.0033 µM [inhibitor, full curve, poor fit]	
Cc1cc(=O)oc2c3c(cc(OCC(=O)NCc4ccccn4)c12)OC(C)(C)CC3	inconclusive: 13.1 µM [inhibitor, single point]	
O=C(CSc1ccc(-c2ccco2)nn1)Nc1ccccc1		inactive: -17.9%
O=C1CN(C(=S)NC(=O)c2ccccc2[N+](=O)[O-])CCN1	active: 7.38 µM	
COCCN1C=C(C(=O)OC)C(c2ccccc2C(F)(F)F)C(C(=O)OC)=C1	inconclusive: 11.7 µM [inhibitor, partial curve]	
CC(C)(C)NC(=O)NC(=O)CN1C(=O)NC(c2ccccc2)(c2ccccc2)C1=O	inconclusive: 10.4 µM [inhibitor, single point]	
Cc1cc(C)c(C#N)c(SCC(=O)Nc2ccccc2)n1	inconclusive: 2.08 µM [inhibitor, partial curve]	
Cc1ccc(Nc2ncnc3c2nnn3Cc2ccccc2)cc1		inactive: -45.8%
NC(=S)N/N=C1\CC(c2ccc3c(c2)OCCCO3)Oc2ccc(F)cc21 (centres undefined)	inconclusive: 1.47 µM [inhibitor, full curve, poor fit]	
O=C(c1cccc(Cl)c1)N1CCN(Cc2ccc3c(c2)OCO3)CC1		inactive: 6.86%
O=C(c1ccc(-c2cccc(C(F)(F)F)c2)o1)N1CCN(c2ccccc2)CC1	inconclusive: 18.5 µM [inhibitor, single point]	
O=C(COC(=O)CNC(=O)c1cccc([N+](=O)[O-])c1)Nc1cccc(S(=O)(=O)N2CCCC2)c1		inactive: 7.34%
Fc1ccc(N/N=C/c2cccnc2)c(F)c1		inactive: -18.1%
CSc1ccccc1OCc1cc(C(=O)N2CCNC(=O)C2)no1	inconclusive: 8.28 µM [inhibitor, single point]	
CSCCC(=O)N1CCCC(CNC(=O)c2ccc(-c3ccccc3)cc2)C1 (centres undefined)	inconclusive: 13.1 µM [inhibitor, single point]	
O=c1cc(CN2CCN(c3ccccc3)CC2)nc2scc(-c3ccccc3)n12	inconclusive: 16.5 µM [inhibitor, single point]	
CC(NC(=O)CCCc1nnc2n(C)c(=O)c3sccc3n12)c1ccccc1 (centres undefined)	active: 13.1 µM	
CCOC(=O)N1CCC(=NNC(=O)c2ccc(O)cc2)CC1	inconclusive: 2.62 µM [inhibitor, single point]	
COc1ccc(C(=O)/C=C/c2cn(CC(O)CN3CCN(C)CC3)c3ccccc23)cc1OC (centres undefined)	active: 11.7 µM	
CCN1C(=O)C(=Cc2c(C)n(CC(=O)NCC3CCCO3)c3ccccc23)C(=O)N(CC)C1=S (centres undefined)	inconclusive: 20.8 µM [inhibitor, partial curve, poor fit]	

SMILES	Potency	activity change, negative = inhibition
O=C(Nc1ccc(-c2cn3ccsc3n2)cc1)C1COc2ccccc2O1 (centres undefined)	inconclusive: 18.5 µM [inhibitor, single point]	
Cc1ccc(NCC(=O)N/N=C/c2ccc(C(=O)O)cc2)cc1	inconclusive: 0.262 µM [inhibitor, full curve, poor fit]	
Cc1cc(C)c(C#N)c(SCC(=O)Nc2nonc2N)n1		inactive: 20.8%
CCCNc1nc(NCC)nc(OC)n1	inconclusive: 0.415 µM [inhibitor, full curve]	
CCCOc1ccc(N2C(=O)CC(N(CCc3ccc(S(N)(=O)=O)cc3)C(C)=O)C2=O)cc1 (centres undefined)	inconclusive: 8.28 µM [inhibitor, partial curve, poor fit]	
COc1ccc(-n2nc(C(=O)NCC(=O)NCCC3=CCCCC3)c3ccccc3c2=O)cc1OC	active: 9.28 µM	
O=C(NC1CCCCC1NC(=O)c1cccs1)c1cccs1 (centres undefined)	inconclusive: 18.5 µM [inhibitor, single point]	
CCc1cccc(NC(=O)c2cccc3c2C(=O)N(CC2CCCO2)C3)c1 (centres undefined)	inconclusive: 4.15 µM [inhibitor, single point]	
COc1ccc(-c2nn(-c3ccccc3)cc2C(=O)Nc2ccc(C(=O)O)cc2)cc1OC	inconclusive: 6.57 µM [inhibitor, partial curve]	
Cc1ccc(C)c(OCCC(=O)N2CCN(S(=O)(=O)c3cc(C)ccc3C)CC2)c1	inconclusive: 10.4 µM [inhibitor, single point]	
Cc1ccccc1-n1c(-c2ccoc2)nc2ccccc2c1=O	active: 4.15 µM	
CSc1nc2ccccc2c(=O)n1C1CCCCC1	active: 1.47 µM	
COc1ccc(OC)c(/C=C2\Oc3cc(OCC(=O)N4CCC[C@H]4C(=O)O)ccc3C2=O)c1	inconclusive: 18.5 µM [inhibitor, single point]	
CO[C@H]1OC2O[C@@]3(C)CC[C@H]4[C@H](C)CC[C@@H]([C@H]1C)[C@@]24OO3 (some centres undefined)	active: 0.0048 µM	
COc1ccc(Br)cc1S(=O)(=O)N(CC(=O)N1CCN(C)CC1)c1ccccc1	inconclusive: 11.7 µM [inhibitor, partial curve]	
Cc1sc2c(=O)n3c(nc2c1C(=O)NCCCN1CCOCC1)CCCCC3	inconclusive: 11.7 µM [inhibitor, single point]	
NC(=O)c1nn(CC(=O)Nc2cccc(S(=O)(=O)N3CCCC3)c2)c(=O)c2ccccc12	inconclusive: 8.28 µM [inhibitor, partial curve]	
COc1ccc([C@]23Cc4cc(C#N)ccc4[C@H](O2)c2c(cc(C)n(Cc4ccccc4)c2=O)O3)cc1		inactive: -3.81% [at 5.75 µM]
Cc1ccc(CN(C)C(=O)C2CCC(=O)N(CCc3ccccc3)C2)o1 (centres undefined)	inconclusive: 18.5 µM [inhibitor, single point]	
Cc1cc(C(=O)N/N=C/c2cccnc2)cs1		inactive: -23.1%
COc1ccc(C2NC(=O)c3sc4nc(C)c(C(C)=O)c(-c5ccc(Cl)cc5)c4c3N2)cc1 (centres undefined)	inconclusive: 11.7 µM [inhibitor, single point]	
CCOC(=O)C1=CC(OC(CC)CC)C(NC(C)=O)C(N)C1 (centres undefined)	inconclusive: 19 µM [inhibitor, single point]	
